Assay results: US20140255430A1, “METHODS AND REAGENTS FOR DETECTION AND TREATMENT OF ESOPHAGEAL METAPLASIA” (NATIONAL UNIVERSITY OF SINGAPORE, priority 2010, published 2014)

Test system: Barrett's esophagus progenitor cells
Assay: Expression microarray: Barrett's esophagus progenitor cells vs gastric cardia progenitor cells (Table YY)
Format: cell-based, human
Settings: mRNA expression microarray, clonal Barrett's esophagus progenitor cells vs clonal gastric cardia progenitor cells

FGF2
Ratio (Barrett's vs. Cardia): 2.762
Fold-Change (Barrett's vs. Cardia) (negative = lower in Barrett's): 2.762
